Results are given in words; binding and its absence hold for the method and conditions named. Some results given as binding are weak or reduced against the parent protein; the word gives no strength.
T1: Recombinant Human N-Cadherin extracellular domain, amino acids 160-724 (human) (UniProt P19022)
T1 sequence: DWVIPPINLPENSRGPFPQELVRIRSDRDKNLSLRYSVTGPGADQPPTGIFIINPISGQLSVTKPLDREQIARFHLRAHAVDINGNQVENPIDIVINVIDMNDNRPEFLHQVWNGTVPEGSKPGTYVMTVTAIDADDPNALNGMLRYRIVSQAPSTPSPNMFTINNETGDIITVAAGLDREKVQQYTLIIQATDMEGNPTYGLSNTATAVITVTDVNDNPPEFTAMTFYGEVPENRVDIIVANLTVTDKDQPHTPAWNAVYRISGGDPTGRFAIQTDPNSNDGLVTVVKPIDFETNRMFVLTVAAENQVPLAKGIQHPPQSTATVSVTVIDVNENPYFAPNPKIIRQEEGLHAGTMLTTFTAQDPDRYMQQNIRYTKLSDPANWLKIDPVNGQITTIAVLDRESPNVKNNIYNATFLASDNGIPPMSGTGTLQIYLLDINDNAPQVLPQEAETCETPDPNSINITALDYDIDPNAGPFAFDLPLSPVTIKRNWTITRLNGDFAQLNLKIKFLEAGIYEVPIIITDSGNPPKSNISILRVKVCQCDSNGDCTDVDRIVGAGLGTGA


Legend:
[1] = molecular target: N-cadherin (CDH2) on glioma stem cells (human (endogenous in patient-derived GSCs)) (UniProt P19022); assay: flow cytometry on cells; EV peptide on GSCs after a knockdown of CDH2; only the binder purified
[2] = molecular target: T1, Recombinant Human N-Cadherin extracellular domain, amino acids 160-724 (human); assay: SPR; N-cadherin amine-coupled to CM5 chip (about 3500 RU), Biacore T200, 25°C; 20 mM HEPES pH 7.4, 1 mM TCEP, 2 mM CaCl2, 150 mM NaCl, 5% DMSO; single cycle kinetics, peptide 2 to 167 µM; 1:1 binding model; both purified

binding [1] | binding [2] | Binder
binds |  | AWEFYFPGGGGSGGGGSGGGGSSSQPFWS (conjugated with biotin (position not given)) [biotinylated dual peptide EV (EV-b)]
 | no binding (tested: 2 to 167 µM) | GGGSGGG [non-targeting (NT) peptide (GGGSGGG) of the SPR control]
